# These are yes or no findings as the source states them, for the method shown. In cells and extracts the contact can be indirect. Here binding means that the protein was enriched with, or labelled near, the bait; the list need not be complete. Tags and fused reporters may be left off the sequences shown.
# By UniProt entry, the sequences of proteins in these tests, tags left out.
# UniProt P30613: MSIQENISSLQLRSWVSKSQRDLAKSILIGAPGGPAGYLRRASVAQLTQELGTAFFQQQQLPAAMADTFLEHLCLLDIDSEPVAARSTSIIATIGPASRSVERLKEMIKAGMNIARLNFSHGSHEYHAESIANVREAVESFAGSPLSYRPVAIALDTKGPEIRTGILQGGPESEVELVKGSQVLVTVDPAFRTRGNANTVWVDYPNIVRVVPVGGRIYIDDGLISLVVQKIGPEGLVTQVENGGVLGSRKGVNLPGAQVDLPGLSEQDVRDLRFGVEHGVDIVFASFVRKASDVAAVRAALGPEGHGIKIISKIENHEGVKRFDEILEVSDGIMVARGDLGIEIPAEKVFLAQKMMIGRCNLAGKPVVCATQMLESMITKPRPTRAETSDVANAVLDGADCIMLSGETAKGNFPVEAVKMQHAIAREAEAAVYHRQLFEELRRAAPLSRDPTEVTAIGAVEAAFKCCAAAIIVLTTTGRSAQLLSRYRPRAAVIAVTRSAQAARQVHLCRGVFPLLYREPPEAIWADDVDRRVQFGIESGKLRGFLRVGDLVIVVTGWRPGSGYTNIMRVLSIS
# UniProt P55060: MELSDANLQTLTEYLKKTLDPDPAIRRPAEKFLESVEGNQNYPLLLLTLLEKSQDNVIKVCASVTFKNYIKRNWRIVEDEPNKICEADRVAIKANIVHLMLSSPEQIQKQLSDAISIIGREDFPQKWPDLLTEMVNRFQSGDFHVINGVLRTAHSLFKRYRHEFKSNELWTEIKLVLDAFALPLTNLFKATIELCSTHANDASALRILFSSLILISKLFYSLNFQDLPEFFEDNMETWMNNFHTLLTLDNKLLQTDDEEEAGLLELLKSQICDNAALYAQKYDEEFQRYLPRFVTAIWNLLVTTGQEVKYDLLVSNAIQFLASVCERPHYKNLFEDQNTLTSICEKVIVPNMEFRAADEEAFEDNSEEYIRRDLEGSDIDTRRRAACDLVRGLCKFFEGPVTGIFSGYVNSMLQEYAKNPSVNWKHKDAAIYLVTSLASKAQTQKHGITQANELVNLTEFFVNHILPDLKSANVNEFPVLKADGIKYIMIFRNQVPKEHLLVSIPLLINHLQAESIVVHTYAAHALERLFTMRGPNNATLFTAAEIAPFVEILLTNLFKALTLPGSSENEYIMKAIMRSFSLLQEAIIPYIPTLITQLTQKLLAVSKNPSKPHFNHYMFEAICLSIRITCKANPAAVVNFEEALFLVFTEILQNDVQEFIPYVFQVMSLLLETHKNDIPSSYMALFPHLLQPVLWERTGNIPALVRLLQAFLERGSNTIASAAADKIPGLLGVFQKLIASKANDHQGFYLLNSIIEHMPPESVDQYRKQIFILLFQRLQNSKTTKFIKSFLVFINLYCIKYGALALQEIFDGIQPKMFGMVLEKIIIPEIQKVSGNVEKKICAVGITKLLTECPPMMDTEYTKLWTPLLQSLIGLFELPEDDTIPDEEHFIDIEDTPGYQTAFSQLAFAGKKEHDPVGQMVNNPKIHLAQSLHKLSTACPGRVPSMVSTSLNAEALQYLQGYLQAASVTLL
# UniProt Q14240: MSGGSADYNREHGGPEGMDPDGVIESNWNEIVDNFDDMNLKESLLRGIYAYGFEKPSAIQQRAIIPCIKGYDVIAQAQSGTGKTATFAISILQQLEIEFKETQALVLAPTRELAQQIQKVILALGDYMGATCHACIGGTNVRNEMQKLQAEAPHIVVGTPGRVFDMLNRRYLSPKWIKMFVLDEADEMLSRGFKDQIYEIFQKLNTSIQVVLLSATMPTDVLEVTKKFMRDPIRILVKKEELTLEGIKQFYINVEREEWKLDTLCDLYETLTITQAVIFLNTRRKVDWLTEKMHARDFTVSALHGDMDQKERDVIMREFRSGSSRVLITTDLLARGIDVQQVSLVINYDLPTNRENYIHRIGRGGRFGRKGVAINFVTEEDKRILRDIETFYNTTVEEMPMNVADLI
# UniProt Q96F07: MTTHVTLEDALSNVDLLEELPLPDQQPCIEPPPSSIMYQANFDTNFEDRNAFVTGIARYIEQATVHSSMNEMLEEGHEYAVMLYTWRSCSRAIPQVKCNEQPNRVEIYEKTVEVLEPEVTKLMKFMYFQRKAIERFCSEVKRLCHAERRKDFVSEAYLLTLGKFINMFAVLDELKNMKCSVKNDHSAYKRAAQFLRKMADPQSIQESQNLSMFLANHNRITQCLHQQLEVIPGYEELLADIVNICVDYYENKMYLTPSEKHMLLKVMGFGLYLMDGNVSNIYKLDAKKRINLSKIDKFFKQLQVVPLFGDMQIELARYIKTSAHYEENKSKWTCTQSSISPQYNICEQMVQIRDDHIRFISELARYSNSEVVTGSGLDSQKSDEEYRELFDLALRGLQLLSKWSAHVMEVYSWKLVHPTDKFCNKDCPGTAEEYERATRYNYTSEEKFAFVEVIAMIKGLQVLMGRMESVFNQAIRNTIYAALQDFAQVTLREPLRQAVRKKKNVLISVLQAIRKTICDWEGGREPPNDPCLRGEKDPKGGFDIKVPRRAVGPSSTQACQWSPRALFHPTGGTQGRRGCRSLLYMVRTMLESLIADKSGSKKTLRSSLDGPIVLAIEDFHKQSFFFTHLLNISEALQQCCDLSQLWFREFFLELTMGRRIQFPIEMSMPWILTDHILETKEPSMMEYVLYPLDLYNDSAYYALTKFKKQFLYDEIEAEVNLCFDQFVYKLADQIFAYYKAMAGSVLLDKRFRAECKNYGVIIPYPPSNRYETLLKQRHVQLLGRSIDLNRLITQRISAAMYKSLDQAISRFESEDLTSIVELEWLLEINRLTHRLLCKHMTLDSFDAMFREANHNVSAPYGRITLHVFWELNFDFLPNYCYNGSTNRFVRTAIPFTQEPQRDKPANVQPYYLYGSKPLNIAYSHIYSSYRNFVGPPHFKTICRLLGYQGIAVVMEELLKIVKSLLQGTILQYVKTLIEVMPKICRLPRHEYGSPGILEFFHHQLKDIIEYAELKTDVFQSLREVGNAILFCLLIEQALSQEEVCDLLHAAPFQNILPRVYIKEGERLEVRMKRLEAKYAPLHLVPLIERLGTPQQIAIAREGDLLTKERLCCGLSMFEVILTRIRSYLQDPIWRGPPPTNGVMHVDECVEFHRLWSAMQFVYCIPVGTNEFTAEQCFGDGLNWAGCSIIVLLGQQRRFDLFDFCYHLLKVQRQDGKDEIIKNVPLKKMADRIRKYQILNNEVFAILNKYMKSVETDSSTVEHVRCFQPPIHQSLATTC
# UniProt P61619: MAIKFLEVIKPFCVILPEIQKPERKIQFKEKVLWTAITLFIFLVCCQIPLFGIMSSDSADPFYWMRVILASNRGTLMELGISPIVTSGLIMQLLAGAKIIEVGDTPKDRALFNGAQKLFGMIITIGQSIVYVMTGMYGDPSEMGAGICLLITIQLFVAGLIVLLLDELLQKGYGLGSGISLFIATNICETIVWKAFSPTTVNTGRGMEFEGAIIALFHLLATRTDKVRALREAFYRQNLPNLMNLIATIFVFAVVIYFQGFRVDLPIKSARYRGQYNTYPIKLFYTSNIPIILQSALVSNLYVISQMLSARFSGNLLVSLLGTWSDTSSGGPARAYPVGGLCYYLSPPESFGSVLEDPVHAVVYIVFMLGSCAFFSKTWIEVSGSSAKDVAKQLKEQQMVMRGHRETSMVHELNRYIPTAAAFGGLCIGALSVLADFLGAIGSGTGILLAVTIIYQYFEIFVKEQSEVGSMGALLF
# UniProt P47756: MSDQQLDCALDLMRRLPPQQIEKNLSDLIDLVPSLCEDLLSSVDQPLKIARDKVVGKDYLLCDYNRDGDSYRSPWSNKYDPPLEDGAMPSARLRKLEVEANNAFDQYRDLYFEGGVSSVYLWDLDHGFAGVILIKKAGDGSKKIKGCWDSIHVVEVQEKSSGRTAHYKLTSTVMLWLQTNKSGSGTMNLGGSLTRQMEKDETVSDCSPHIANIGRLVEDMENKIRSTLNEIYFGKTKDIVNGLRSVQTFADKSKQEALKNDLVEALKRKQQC
# UniProt Q92973: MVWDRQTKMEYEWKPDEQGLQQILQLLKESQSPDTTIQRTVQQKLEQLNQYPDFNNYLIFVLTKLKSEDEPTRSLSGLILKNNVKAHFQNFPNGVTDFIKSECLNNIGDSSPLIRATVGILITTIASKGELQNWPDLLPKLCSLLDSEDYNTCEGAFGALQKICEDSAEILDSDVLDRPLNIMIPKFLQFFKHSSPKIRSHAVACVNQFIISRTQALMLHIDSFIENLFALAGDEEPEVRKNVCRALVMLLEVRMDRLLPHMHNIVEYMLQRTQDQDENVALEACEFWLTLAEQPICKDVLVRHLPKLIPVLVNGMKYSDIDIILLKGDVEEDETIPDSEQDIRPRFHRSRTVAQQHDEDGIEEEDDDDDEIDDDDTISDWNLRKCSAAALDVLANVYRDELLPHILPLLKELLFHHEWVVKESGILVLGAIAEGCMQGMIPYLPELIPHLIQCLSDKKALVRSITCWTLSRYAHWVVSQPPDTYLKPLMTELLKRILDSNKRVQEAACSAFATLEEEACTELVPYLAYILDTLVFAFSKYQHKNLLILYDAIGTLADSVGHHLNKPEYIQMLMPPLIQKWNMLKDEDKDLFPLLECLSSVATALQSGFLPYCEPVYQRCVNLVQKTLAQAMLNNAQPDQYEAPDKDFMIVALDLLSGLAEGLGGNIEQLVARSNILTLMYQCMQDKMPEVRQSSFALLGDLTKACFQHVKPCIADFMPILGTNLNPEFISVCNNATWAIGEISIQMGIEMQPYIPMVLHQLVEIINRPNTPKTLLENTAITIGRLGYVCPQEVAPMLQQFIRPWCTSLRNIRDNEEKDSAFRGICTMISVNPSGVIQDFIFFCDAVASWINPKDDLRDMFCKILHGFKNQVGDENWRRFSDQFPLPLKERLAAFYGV
# B1: DDX47 (protein, UniProt Q9H0S4 1-455)
# chain: MAAPEEHDSPTEASQPIVEEEETKTFKDLGVTDVLCEACDQLGWTKPTKIQIEAIPLALQGRDIIGLAETGSGKTGAFALPILNALLETPQRLFALVLTPTRELAFQISEQFEALGSSIGVQSAVIVGGIDSMSQSLALAKKPHIIIATPGRLIDHLENTKGFNLRALKYLVMDEADRILNMDFETEVDKILKVIPRDRKTFLFSATMTKKVQKLQRAALKNPVKCAVSSKYQTVEKLQQYYIFIPSKFKDTYLVYILNELAGNSFMIFCSTCNNTQRTALLLRNLGFTAIPLHGQMSQSKRLGSLNKFKAKARSILLATDVASRGLDIPHVDVVVNFDIPTHSKDYIHRVGRTARAGRSGKAITFVTQYDVELFQRIEHLIGKKLPGFPTQDDEVMMLTERVAEAQRFARMELREHGEKKKRSREDAGDNDDTEGAIGVRNKVAGGKMKKRKGR
# B2: UTP6 (protein, UniProt Q9NYH9 1-597)
# chain: MAEIIQERIEDRLPELEQLERIGLFSHAEIKAIIKKASDLEYKIQRRTLFKEDFINYVQYEINLLELIQRRRTRIGYSFKKDEIENSIVHRVQGVFQRASAKWKDDVQLWLSYVAFCKKWATKTRLSKVFSAMLAIHSNKPALWIMAAKWEMEDRLSSESARQLFLRALRFHPECPKLYKEYFRMELMHAEKLRKEKEEFEKASMDVENPDYSEEILKGELAWIIYKNSVSIIKGAEFHVSLLSIAQLFDFAKDLQKEIYDDLQALHTDDPLTWDYVARRELEIESQTEEQPTTKQAKAVEVGRKEERCCAVYEEAVKTLPTEAMWKCYITFCLERFTKKSNSGFLRGKRLERTMTVFRKAHELKLLSECQYKQLSVSLLCYNFLREALEVAVAGTELFRDSGTMWQLKLQVLIESKSPDIAMLFEEAFVHLKPQVCLPLWISWAEWSEGAKSQEDTEAVFKKALLAVIGADSVTLKNKYLDWAYRSGGYKKARAVFKSLQESRPFSVDFFRKMIQFEKEQESCNMANIREYYERALREFGSADSDLWMDYMKEELNHPLGRPENCGQIYWRAMKMLQGESAEAFVAKHAMHQTGHL
# B3: MDH2 (protein, UniProt P40926 25-338)
# chain: AKVAVLGASGGIGQPLSLLLKNSPLVSRLTLYDIAHTPGVAADLSHIETKAAVKGYLGPEQLPDCLKGCDVVVIPAGVPRKPGMTRDDLFNTNATIVATLTAACAQHCPEAMICVIANPVNSTIPITAEVFKKHGVYNPNKIFGVTTLDIVRANTFVAELKGLDPARVNVPVIGGHAGKTIIPLISQCTPKVDFPQDQLTALTGRIQEAGTEVVKAKAGAGSATLSMAYAGARFVFSLVDAMNGKEGVVECSFVKSQETECTYFSTPLLLGKKGIEKNLGIGKVSSFEEKMISDAIPELKASIKKGEDFVKTLK
# B4: DLD (protein, UniProt P09622 36-509)
# chain: ADQPIDADVTVIGSGPGGYVAAIKAAQLGFKTVCIEKNETLGGTCLNVGCIPSKALLNNSHYYHMAHGKDFASRGIEMSEVRLNLDKMMEQKSTAVKALTGGIAHLFKQNKVVHVNGYGKITGKNQVTATKADGGTQVIDTKNILIATGSEVTPFPGITIDEDTIVSSTGALSLKKVPEKMVVIGAGVIGVELGSVWQRLGADVTAVEFLGHVGGVGIDMEISKNFQRILQKQGFKFKLNTKVTGATKKSDGKIDVSIEAASGGKAEVITCDVLLVCIGRRPFTKNLGLEELGIELDPRGRIPVNTRFQTKIPNIYAIGDVVAGPMLAHKAEDEGIICVEGMAGGAVHIDYNCVPSVIYTHPEVAWVGKSEEQLKEEGIEYKVGKFPFAANSRAKTNADTDGMVKILGQKSTDRVLGAHILGPGAGEMVNEAALALEYGASCEDIARVCHAHPTLSEAFREANLAASFGKSINF
# B5: PLCD4 (protein, UniProt Q9BRC7 1-762)
# chain: MASLLQDQLTTDQDLLLMQEGMPMRKVRSKSWKKLRYFRLQNDGMTVWHARQARGSAKPSFSISDVETIRNGHDSELLRSLAEELPLEQGFTIVFHGRRSNLDLMANSVEEAQIWMRGLQLLVDLVTSMDHQERLDQWLSDWFQRGDKNQDGKMSFQEVQRLLHLMNVEMDQEYAFSLFQAADTSQSGTLEGEEFVQFYKALTKRAEVQELFESFSADGQKLTLLEFLDFLQEEQKERDCTSELALELIDRYEPSDSGKLRHVLSMDGFLSYLCSKDGDIFNPACLPIYQDMTQPLNHYFICSSHNTYLVGDQLCGQSSVEGYIRALKRGCRCVEVDVWDGPSGEPVVYHGHTLTSRILFKDVVATVAQYAFQTSDYPVILSLETHCSWEQQQTMARHLTEILGEQLLSTTLDGVLPTQLPSPEELRRKILVKGKKLTLEEDLEYEEEEAEPELEESELALESQFETEPEPQEQNLQNKDKKKKSKPILCPALSSLVIYLKSVSFRSFTHSKEHYHFYEISSFSETKAKRLIKEAGNEFVQHNTWQLSRVYPSGLRTDSSNYNPQELWNAGCQMVAMNMQTAGLEMDICDGHFRQNGGCGYVLKPDFLRDIQSSFHPEKPISPFKAQTLLIQVISGQQLPKVDKTKEGSIVDPLVKVQIFGVRLDTARQETNYVENNGFNPYWGQTLCFRVLVPELAMLRFVVMDYDWKSRNDFIGQYTLPWTCMQQGYRHIHLLSKDGISLRPASIFVYICIQEGLEGDES
# B6: HK1 (protein, UniProt P19367 1-917)
# chain: MIAAQLLAYYFTELKDDQVKKIDKYLYAMRLSDETLIDIMTRFRKEMKNGLSRDFNPTATVKMLPTFVRSIPDGSEKGDFIALDLGGSSFRILRVQVNHEKNQNVHMESEVYDTPENIVHGSGSQLFDHVAECLGDFMEKRKIKDKKLPVGFTFSFPCQQSKIDEAILITWTKRFKASGVEGADVVKLLNKAIKKRGDYDANIVAVVNDTVGTMMTCGYDDQHCEVGLIIGTGTNACYMEELRHIDLVEGDEGRMCINTEWGAFGDDGSLEDIRTEFDREIDRGSLNPGKQLFEKMVSGMYLGELVRLILVKMAKEGLLFEGRITPELLTRGKFNTSDVSAIEKNKEGLHNAKEILTRLGVEPSDDDCVSVQHVCTIVSFRSANLVAATLGAILNRLRDNKGTPRLRTTVGVDGSLYKTHPQYSRRFHKTLRRLVPDSDVRFLLSESGSGKGAAMVTAVAYRLAEQHRQIEETLAHFHLTKDMLLEVKKRMRAEMELGLRKQTHNNAVVKMLPSFVRRTPDGTENGDFLALDLGGTNFRVLLVKIRSGKKRTVEMHNKIYAIPIEIMQGTGEELFDHIVSCISDFLDYMGIKGPRMPLGFTFSFPCQQTSLDAGILITWTKGFKATDCVGHDVVTLLRDAIKRREEFDLDVVAVVNDTVGTMMTCAYEEPTCEVGLIVGTGSNACYMEEMKNVEMVEGDQGQMCINMEWGAFGDNGCLDDIRTHYDRLVDEYSLNAGKQRYEKMISGMYLGEIVRNILIDFTKKGFLFRGQISETLKTRGIFETKFLSQIESDRLALLQVRAILQQLGLNSTCDDSILVKTVCGVVSRRAAQLCGAGMAAVVDKIRENRGLDRLNVTVGVDGTLYKLHPHFSRIMHQTVKELSPKCNVSFLLSEDGSGKGAALITAVGVRLRTEASS
# B7: MDK (protein, UniProt P21741 21-143)
# chain: VAKKKDKVKKGGPGSECAEWAWGPCTPSSKDCGVGFREGTCGAQTQRIRCRVPCNWKKEFGADCKYKFENWGACDGGTGTKVRQGTLKKARYNAQCQETIRVTKPCTPKTKAKAKAKKGKGKD
# B8: DSC1 (protein, UniProt Q08554 135-894)
# chain: RWAPIPASLMENSLGPFPQHVQQIQSDAAQNYTIFYSISGPGVDKEPFNLFYIEKDTGDIFCTRSIDREKYEQFALYGYATTADGYAPEYPLPLIIKIEDDNDNAPYFEHRVTIFTVPENCRSGTSVGKVTATDLDEPDTLHTRLKYKILQQIPDHPKHFSIHPDTGVITTTTPFLDREKCDTYQLIMEVRDMGGQPFGLFNTGTITISLEDENDNPPSFTETSYVTEVEENRIDVEILRMKVQDQDLPNTPHSKAVYKILQGNENGNFIISTDPNTNEGVLCVVKPLNYEVNRQVILQVGVINEAQFSKAASSQTPTMCTTTVTVKIIDSDEGPECHPPVKVIQSQDGFPAGQELLGYKALDPEISSGEGLRYQKLGDEDNWFEINQHTGDLRTLKVLDRESKFVKNNQYNISVVAVDAVGRSCTGTLVVHLDDYNDHAPQIDKEVTICQNNEDFAVLKPVDPDGPENGPPFQFFLDNSASKNWNIEEKDGKTAILRQRQNLDYNYYSVPIQIKDRHGLVATHMLTVRVCDCSTPSECRMKDKSTRDVRPNVILGRWAILAMVLGSVLLLCILFTCFCVTAKRTVKKCFPEDIAQQNLIVSNTEGPGEEVTEANIRLPMQTSNICDTSMSVGTVGGQGIKTQQSFEMVKGGYTLDSNKGGGHQTLESVKGVGQGDTGRYAYTDWQSFTQPRLGEKVYLCGQDEEHKHCEDYVCSYNYEGKGSLAGSVGCCSDRQEEEGLEFLDHLEPKFRTLAKTCIKK
# Molecular target: T1, 3×Flag-tagged-FLVCR1 (feline leukemia virus subgroup C receptor 1) (UniProt Q9Y5Y0)
# T1 sequence: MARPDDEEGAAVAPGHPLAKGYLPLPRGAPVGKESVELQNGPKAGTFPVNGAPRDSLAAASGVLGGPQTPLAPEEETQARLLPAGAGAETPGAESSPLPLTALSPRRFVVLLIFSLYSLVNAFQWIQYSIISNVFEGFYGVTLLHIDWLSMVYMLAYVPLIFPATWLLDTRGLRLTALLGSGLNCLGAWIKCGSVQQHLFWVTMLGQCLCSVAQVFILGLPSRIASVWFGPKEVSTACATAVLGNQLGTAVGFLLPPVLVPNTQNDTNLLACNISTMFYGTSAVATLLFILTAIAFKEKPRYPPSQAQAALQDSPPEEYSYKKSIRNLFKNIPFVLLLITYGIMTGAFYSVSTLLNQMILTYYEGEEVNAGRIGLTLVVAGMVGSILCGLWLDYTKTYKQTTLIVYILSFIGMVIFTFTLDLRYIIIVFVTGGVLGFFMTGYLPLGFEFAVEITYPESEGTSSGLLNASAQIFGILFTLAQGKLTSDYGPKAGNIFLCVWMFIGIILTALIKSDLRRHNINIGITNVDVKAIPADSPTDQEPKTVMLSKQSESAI
# Assay: affinity purification with mass spectrometry; lysates of KYSE-150 cells stably expressing 3×Flag-tagged FLVCR1 (OE) or control (NC); anti-FLAG beads, eluted with 3×FLAG peptide, SDS-PAGE with Coomassie staining, bands digested with trypsin, LC-MS; proteins detected in the OE group
row,Molecule,binding
1,PKLR (from UniProt P30613 1-574),binds
2,chromosome segregation 1–like (CSE1L) (from UniProt P55060 1-971),binds
3,EIF4A2 (from UniProt Q14240 1-407),binds
4,CYFIP2 (from UniProt Q96F07 1-1278),binds
5,SEC61A1 (from UniProt P61619 1-476),binds
6,CAPZB (from UniProt P47756 1-272),binds
7,TNPO1 (from UniProt Q92973 1-898),binds
8,B1,binds
9,B2,binds
10,B3,binds
11,B4,binds
12,B5,binds
13,B6,binds
14,B7,binds
15,B8,binds

# Source: PMC8027484
